In PubChem BioAssay AID256 (DTP/NCI, 2004):
The list shows only some results of the screen, not a fair sample: it gathers tests that were run many times, whatever their T/C, doses with no T/C, and many T/C values between a quarter and a half above the control. Further doses and runs are listed elsewhere. T/C is the treated group as % of the vehicle group. Some doses have a count of surviving animals in place of a T/C: the source files T/C as zero there, which appears to mark a toxic dose or a test without result, not a measured value. Some doses without a T/C left all or most animals alive at the check, yet need not have been tolerated: the source hardly ever lists a survival T/C far under the control, and the zero likely stands for such cases as well. Survivors were counted at the toxicity check, usually on the fifth day, unless a day is given; later deaths do not show. Schedules are NCI's codes, read here as Q, the interval in days (D) or hours (H), X, the number of doses. Some entries hold several experiments; their values stand side by side, smallest first. Additions like (4×) say how often a value occurs here. For survival time, the PubChem record calls one and a half times the control and up active, and a quarter to a half above the control has no call in these data; cut-offs in other NCI protocols can differ. Some T/C values are followed by the survivors on the day toxicity was checked, most often the fifth; without a count, all were alive then.

Test system: CD2F1 mice, L1210 leukemia ip, survival T/C
Assay: NCI In Vivo Anticancer Drug Screen. Data for tumor model L1210 Leukemia (intraperitoneal) in CD2F1 (CDF1) mice
Settings: T/C endpoint: median survival time, higher T/C = longer survival
Method in brief: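 Compound-dosed mice with transplantable tumor versus matched vehicle controls; endpoint ratio T/C reported.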

O=NN(CCCl)C(=O)NCCCl
T/C (dose: 15.0 mg/kg/injection, schedule: Q01DX005 (ip), vehicle: saline + alcohol, evaluated on day 35): 160 % of control | T/C (dose: 15.0 mg/kg/injection, schedule: Q01DX005 (ip), vehicle: saline + alcohol, evaluated on day 60): 145 and 402 % of control | T/C (dose: 15.0 mg/kg/injection, schedule: Q01DX009 (ip), vehicle: saline + alcohol, evaluated on day 30): 132, 136, 138 (2×), 145, 150 (2×), 158 (2×), 160 (2×), 172, 176, 184, 186, 187, 188 [5 of 6 alive], 204, 223, 230, 240, 259, 273, 308, 370, 375 % of control | T/C (dose: 15.0 mg/kg/injection, schedule: Q01DX009 (ip), vehicle: saline + alcohol, evaluated on day 35): 145 % of control | T/C (dose: 15.0 mg/kg/injection, schedule: Q01DX009 (ip), vehicle: saline + alcohol, evaluated on day 60): 143 and 144 % of control | T/C (dose: 20.0 mg/kg/injection, schedule: Q01DX001 (ip), vehicle: saline + alcohol, evaluated on day 7): 196 and 228 % of control | T/C (dose: 20.0 mg/kg/injection, schedule: Q01DX001 (ip), vehicle: saline + alcohol, evaluated on day 9): 183 % of control [8 of 9 alive] | T/C (dose: 20.0 mg/kg/injection, schedule: Q01DX001 (ip), vehicle: saline + alcohol, evaluated on day 30): 127, 146, 160, 161, 168, 174, 179, 186 (2×), 190, 197 (2×), 219, 233, 237, 253, 308, 337, 348, 352, 361, 370 (4×), 375 % of control | T/C (dose: 20.0 mg/kg/injection, schedule: Q01DX001 (ip), vehicle: saline + alcohol, evaluated on day 35): 160 % of control | T/C (dose: 20.0 mg/kg/injection, schedule: Q01DX001 (ip), vehicle: saline + alcohol, evaluated on day 45): 256, 451, 535 % of control | T/C (dose: 20.0 mg/kg/injection, schedule: Q01DX001 (ip), vehicle: saline + alcohol, evaluated on day 60): 182 and 722 % of control (2×) | T/C (dose: 30.0 mg/kg/injection, schedule: Q01DX001 (ip), vehicle: saline + alcohol, evaluated on day 7): 216 and 223 % of control | T/C (dose: 30.0 mg/kg/injection, schedule: Q01DX001 (ip), vehicle: saline + alcohol, evaluated on day 9): 211 % of control | T/C (dose: 30.0 mg/kg/injection, schedule: Q01DX001 (ip), vehicle: saline + alcohol, evaluated on day 45): 535 and 548 % of control (2×) | T/C (dose: 30.0 mg/kg/injection, schedule: Q01DX001 (ip), vehicle: saline + alcohol, evaluated on day 60): 722 % of control | T/C (dose: 30.0 mg/kg/injection, schedule: Q01DX005 (ip), vehicle: saline + alcohol, evaluated on day 30): 98, 100, 101, 102 (2×), 103, 111, 114 (2×), 115, 117, 119, 120, 127, 128 (2×), 130, 133 (2×), 134, 136, 168, 283 % of control | T/C (dose: 30.0 mg/kg/injection, schedule: Q01DX005 (ip), vehicle: saline + alcohol, evaluated on day 35): 114 % of control | T/C (dose: 30.0 mg/kg/injection, schedule: Q01DX005 (ip), vehicle: saline + alcohol, evaluated on day 60): 96 and 101 % of control | survivor count (dose: 30.0 mg/kg/injection, schedule: Q01DX005 (ip), vehicle: saline + alcohol): 6 of 6 | T/C (dose: 30.0 mg/kg/injection, schedule: Q01DX005 (ip), vehicle: saline): 148 % of control | T/C (dose: 30.0 mg/kg/injection, schedule: Q01DX009 (ip), vehicle: saline + alcohol, evaluated on day 30): 88, 92, 94, 96, 97, 102 (3×), 103 (2×), 104, 105, 108, 112, 116 (2×), 121, 123 (3×), 124, 125, 126, 128, 131 % of control [5 of 6 alive] | T/C (dose: 30.0 mg/kg/injection, schedule: Q01DX009 (ip), vehicle: saline + alcohol, evaluated on day 35): 111 % of control | T/C (dose: 30.0 mg/kg/injection, schedule: Q01DX009 (ip), vehicle: saline + alcohol, evaluated on day 60): 104 and 107 % of control | survivor count (dose: 30.0 mg/kg/injection, schedule: Q01DX009 (ip), vehicle: saline + alcohol): 6 of 6 | T/C (dose: 30.0 mg/kg/injection, schedule: Q01DX009 (ip), vehicle: saline): 127 % of control | T/C (dose: 40.0 mg/kg/injection, schedule: Q01DX001 (ip), vehicle: saline + alcohol, evaluated on day 6): 188 and 219 % of control | T/C (dose: 40.0 mg/kg/injection, schedule: Q01DX001 (ip), vehicle: saline + alcohol, evaluated on day 7): 192 and 223 % of control | T/C (dose: 40.0 mg/kg/injection, schedule: Q01DX001 (ip), vehicle: saline + alcohol, evaluated on day 9): 241 % of control | T/C (dose: 40.0 mg/kg/injection, schedule: Q01DX001 (ip), vehicle: saline + alcohol, evaluated on day 30): 188 [5 of 6 alive], 312, 322 (2×), 333 (2×), 337, 340, 348, 352, 361 (3×), 365, 370 (9×), 375 % of control (3×) | T/C (dose: 40.0 mg/kg/injection, schedule: Q01DX001 (ip), vehicle: saline + alcohol, evaluated on day 35): 283 % of control | T/C (dose: 40.0 mg/kg/injection, schedule: Q01DX001 (ip), vehicle: saline + alcohol, evaluated on day 60): 353 and 722 % of control | T/C (dose: 64.0 mg/kg/injection, schedule: Q01DX001 (ip), vehicle: saline + alcohol): 144 % of control | T/C (dose: 80.0 mg/kg/injection, schedule: Q01DX001 (ip), vehicle: saline + alcohol, evaluated on day 30): 90, 91, 93, 98, 112 (2×), 114, 123, 135, 166, 227, 322, 357, 361, 375 % of control | T/C (dose: 80.0 mg/kg/injection, schedule: Q01DX001 (ip), vehicle: saline + alcohol, evaluated on day 60): 95 % of control | survivor count (dose: 80.0 mg/kg/injection, schedule: Q01DX001 (ip), vehicle: saline + alcohol): 3 of 6, 4 of 6 (2×), 5 of 6 (2×), 6 of 6
